{"source": "PubChem BioAssay AID1259405 (NCATS, 2018)", "purpose": "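Knock-downs that lift recombinant protein yield in hamster ovary cells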 (primary screen)", "cells": "Chinese hamster CHO-K1 ovary cells with stable secreted eGFP expression", "knock-down reagent": "single siRNA against mouse genes, 0.8 pmol siRNA per well (2 µl of 400 nM stock)", "timing": "3 days", "read-out": "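Percent of the per-plate non-targeting control median for intracellular GFP per well by laser scanning cytometry and for cell viability by ATP luminescence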", "reading the numbers": "GFP, % of control: higher = more GFP per well, higher productivity; viability (ATP), % of control: higher = more viable cells (more ATP)", "hit rule": "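a knock-down is called active if GFP reaches 120% or more of non-targeting control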", "note": "Here is a random part of about 50,000 reagents. About 4,000 of them (8%) count as active. 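Mouse siRNA library applied to hamster cells; one well for each siRNA.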 The numbers tell different reagents against one gene apart. No sequences are given here."}
The first 2 records as a preview:
{"gene symbol": "Slc8a2", "reagent no.": 1, "GFP, % of control": 48.3, "viability (ATP), % of control": 60.4, "activity call": "inactive"}
{"gene symbol": "Slc8a2", "reagent no.": 2, "GFP, % of control": 54.2, "viability (ATP), % of control": 48.8, "activity call": "inactive"}

The listing, from the first entry:
{"gene symbol": "Slc8a2", "reagent no.": 1, "GFP, % of control": 48.3, "viability (ATP), % of control": 60.4, "activity call": "inactive"}
{"gene symbol": "Slc8a2", "reagent no.": 2, "GFP, % of control": 54.2, "viability (ATP), % of control": 48.8, "activity call": "inactive"}
{"gene symbol": "Slc8a2", "reagent no.": 3, "GFP, % of control": 76, "viability (ATP), % of control": 75.9, "activity call": "inactive"}
{"gene symbol": "Dysf (dysferlin)", "reagent no.": 1, "GFP, % of control": 71.1, "viability (ATP), % of control": 58.4, "activity call": "inactive"}
{"gene symbol": "Dysf (dysferlin)", "reagent no.": 2, "GFP, % of control": 74.6, "viability (ATP), % of control": 83.9, "activity call": "inactive"}
{"gene symbol": "Dysf (dysferlin)", "reagent no.": 3, "GFP, % of control": 90.1, "viability (ATP), % of control": 83.2, "activity call": "inactive"}
{"gene symbol": "Vat1 (vesicle amine transport 1)", "reagent no.": 1, "GFP, % of control": 87.4, "viability (ATP), % of control": 82.2, "activity call": "inactive"}
{"gene symbol": "Vat1 (vesicle amine transport 1)", "reagent no.": 2, "GFP, % of control": 69.7, "viability (ATP), % of control": 53.9, "activity call": "inactive"}
{"gene symbol": "Vat1 (vesicle amine transport 1)", "reagent no.": 3, "GFP, % of control": 88.3, "viability (ATP), % of control": 57.4, "activity call": "inactive"}
{"gene symbol": "Nelfb (negative elongation factor complex member B)", "reagent no.": 1, "GFP, % of control": 102, "viability (ATP), % of control": 61.9, "activity call": "inactive"}
{"gene symbol": "Nelfb (negative elongation factor complex member B)", "reagent no.": 2, "GFP, % of control": 71.8, "viability (ATP), % of control": 49.8, "activity call": "inactive"}
{"gene symbol": "Nelfb (negative elongation factor complex member B)", "reagent no.": 3, "GFP, % of control": 77.5, "viability (ATP), % of control": 105, "activity call": "inactive"}
{"gene symbol": "Vps35 (VPS35 retromer complex component)", "reagent no.": 1, "GFP, % of control": 77.4, "viability (ATP), % of control": 95, "activity call": "inactive"}
{"gene symbol": "Vps35 (VPS35 retromer complex component)", "reagent no.": 2, "GFP, % of control": 67.4, "viability (ATP), % of control": 95, "activity call": "inactive"}
{"gene symbol": "Hspb8 (heat shock protein family B (small) member 8)", "reagent no.": 1, "GFP, % of control": 166, "viability (ATP), % of control": 92.7, "activity call": "active"}
{"gene symbol": "Hspb8 (heat shock protein family B (small) member 8)", "reagent no.": 2, "GFP, % of control": 129, "viability (ATP), % of control": 77.2, "activity call": "active"}
{"gene symbol": "Hspb8 (heat shock protein family B (small) member 8)", "reagent no.": 3, "GFP, % of control": 100, "viability (ATP), % of control": 114, "activity call": "inactive"}
